The campaign covered roughly 410,000 compounds. About 18,000 (4.4%) were called active. The shares of active, inactive and inconclusive entries below differ from those in the screen. No stated cut-off is given here; in the data, active means activity change below about -60%; inconclusive means no clear call, values can overlap the other calls; inactive means above about -39%.
Experiment: qHTS Assay for inhibitors of the human cytomegalovirus (HCMV)
Details: HFF cells, HCMV-luciferase reporter, 72 h; at 57.5 µM; active compounds read low
Method in brief: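 Inhibition of viral replication was scored as loss of reporter luminescence in HFFs infected with HCMV-luciferase (MOI 1 PFU/cell) for 72 h; compounds tested at 2 doses, normalized to buffer and Salinomycin controls.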
In the case of `COc1ccc(CCn2c(=N)c(C(=O)NCc3ccco3)cc3c(=O)n4ccccc4nc32)cc1`, the activity change, negative = inhibition is reported as inconclusive: -43%.
In the case of `CN1CCC(NCCC(c2ccc(F)cc2)c2ccc(Cl)cc2)CC1` (stereo not drawn), the activity change, negative = inhibition is reported as active: -96.9%.
In the case of `COc1cc(S(=O)(=O)NCC2(N3CCCCC3)CCCCC2)ccc1NC(C)=O`, the activity change, negative = inhibition is reported as active: -97.9%.
For `Cc1cc(C)c(OCC(=O)OCC(=O)NC2CCC(C)CC2)c(C)c1` (stereo not drawn), the activity change, negative = inhibition was inactive: -3.7%.
For `Cc1cc2nc(-c3cccc(Cl)c3)c(Cc3ccsc3)n2c(C)c1Br`, the activity change, negative = inhibition was inactive: 15.9%.
For `O=C(N/C(=C\c1ccccc1)C(=O)N1CCOCC1)c1cccc(Br)c1`, the activity change, negative = inhibition was inactive: 4.05%.
In the case of `COc1ccc(OCC(=O)Nc2cc(-c3nc4ccccc4o3)ccc2Cl)cc1`, the activity change, negative = inhibition is reported as inactive: 85.1%.
With `CCSC1=N/C(=C\c2ccccc2)C(=O)N1c1ccc(OC)cc1` the activity change, negative = inhibition was inconclusive: -41.9%.
With `CCOC(=O)c1ccccc1NS(=O)(=O)c1ccc(OCC)cc1` the activity change, negative = inhibition was inactive: -16.7%.
For `Cc1cc(/C=C(\C#N)C(=O)Nc2ccc(F)cc2)c(C)n1-c1ccc(N2CCOCC2)c([N+](=O)[O-])c1`, the activity change, negative = inhibition was active: -78.9%.
With `COc1ccc(NC(=O)Cn2ccn(-c3ccc(C)c(C)c3)c(=O)c2=O)cc1Cl` the activity change, negative = inhibition was inconclusive: -41%.
In the case of `Cc1cc(N2CCN(c3ccc(F)cc3)CC2)n2cnnc2n1`, the activity change, negative = inhibition is reported as inconclusive: -53.7%.
In the case of `O=C(NCCN1CCCC1)C1CC(=O)N(C2CCCCC2)C1` (stereo not drawn), the activity change, negative = inhibition is reported as inconclusive: -47.1%.
In the case of `Cc1ccccc1NC(=S)NC(=O)CCc1ccccc1`, the activity change, negative = inhibition is reported as inactive: 34.2%.
In the case of `CCn1c(=NC(=O)COc2ccccc2)sc2cccc(F)c21`, the activity change, negative = inhibition is reported as inconclusive: -41.6%.
In the case of `O=c1oc2ccccc2c(O)c1[C@H]1c2ccc(O)cc2Oc2c1c(=O)oc1ccccc21`, the activity change, negative = inhibition is reported as active: -92.9%.
With `COc1ccc(C(=O)N2CCCC(c3ccccc3)=N2)cc1` the activity change, negative = inhibition was inconclusive: -40.3%.
In the case of `O=C(NCC1OCCc2ccccc21)c1cc(COc2ccc(F)cc2Cl)on1` (stereo not drawn), the activity change, negative = inhibition is reported as inconclusive: -40.3%.
With `O=C(NNC(=O)c1ccc(NC(=O)c2ccccc2)cc1)Nc1ccccc1` the activity change, negative = inhibition was active: -61.8%.
For `COc1ccc(C(=O)OCc2ccccc2F)cc1S(=O)(=O)N1CCCC1`, the activity change, negative = inhibition was active: -97.4%.
For `Cc1ccccc1Nc1nc(N)nc(CSc2nnnn2C)n1`, the activity change, negative = inhibition was inactive: 1.83%.
For `Cc1ccc(SCC(=O)c2c(C)nc3ccccn23)cc1`, the activity change, negative = inhibition was inconclusive: -46.3%.
With `Cn1c(N/N=C/c2cccs2)cc(=O)n(C)c1=O` the activity change, negative = inhibition was inactive: 35.3%.
In the case of `Cc1ccc(-c2csc3ncnc(N4CCN(C(=O)c5ccccc5)CC4)c23)cc1`, the activity change, negative = inhibition is reported as active: -70.2%.
For `Cc1ccc(C(=O)Nc2ccc(CC(=O)O)cc2)o1`, the activity change, negative = inhibition was inactive: -29%.
With `C/C(=N/NS(=O)(=O)c1ccc(CC(C)C)cc1)c1ccncc1` the activity change, negative = inhibition was active: -66.1%.
For `Cc1ccc(S(=O)(=O)Nc2ccccc2N2CCOCC2)cc1`, the activity change, negative = inhibition was inactive: -2.5%.
In the case of `O=S(=O)(N=C1C=CC(=NS(=O)(=O)c2ccccc2)c2ccccc21)c1ccccc1`, the activity change, negative = inhibition is reported as inactive: 123%.
For `O=C(CCCC(=O)OCC(Cl)=C(Cl)Cl)Nc1ccc(F)cc1`, the activity change, negative = inhibition was inconclusive: -49.8%.
With `O=C(O)c1ccc2c(c1)N(Cc1ccc(F)cc1)C(=O)c1ccccc1S2=O` (stereo not drawn) the activity change, negative = inhibition was inconclusive: -46.5%.
With `O=C(c1ccco1)N1CCN(C(=O)C23CC4CC(CC(C4)C2)C3)CC1` the activity change, negative = inhibition was inconclusive: -49.9%.
In the case of `CCc1noc(C)c1C(=O)Oc1ccc(N(C)S(=O)(=O)c2ccccc2)cc1`, the activity change, negative = inhibition is reported as inactive: -9.98%.
In the case of `C=CC[C@@H](CC(=O)N[C@@H](CO)Cc1ccccc1)C(=O)NC[C@@H](OC(=O)[C@@H](CC=C)Cc1ccc(F)cc1)c1ccccc1`, the activity change, negative = inhibition is reported as inactive: 0.541%.
In the case of `Cc1ccc(NC(=O)CSc2nc3n[nH]c(C)c3c(=N)n2-c2ccccc2C)cc1C`, the activity change, negative = inhibition is reported as inactive: -27.3%.
With `CCN(Cc1ccccc1)C(=O)c1cn(-c2cccc(OC)c2)c(=O)c2ccccc12` the activity change, negative = inhibition was inconclusive: -40.4%.
For `Cc1ccc(-c2nc3ncccc3o2)cc1NC(=O)c1cccnc1`, the activity change, negative = inhibition was inconclusive: -48.6%.
With `COc1ccc(C(=O)NNC(=O)c2ccccn2)cc1` the activity change, negative = inhibition was active: -83.6%.
For `c1ccc(-c2ccccc2OCCCCN2CCCCC2)cc1`, the activity change, negative = inhibition was inconclusive: -45.4%.
For `Cc1ccc2c(c1)C1CN(C)CCC1N2S(=O)(=O)c1ccc(Oc2ccc([N+](=O)[O-])cc2)cc1` (stereo not drawn), the activity change, negative = inhibition was inconclusive: -46.9%.
With `COCCNC(=S)Nc1cc2oc3ccccc3c2cc1OC` the activity change, negative = inhibition was inactive: 12.1%.
With `COc1ccccc1C1C(C(=O)Nc2ccccc2)=C(C)Nc2nc(-c3ccccc3)nn21` (stereo not drawn) the activity change, negative = inhibition was inconclusive: -46.9%.
In the case of `N#Cc1cccc(C(=O)Nc2cccc(S(=O)(=O)N3CCCC3)c2)c1`, the activity change, negative = inhibition is reported as inconclusive: -42.6%.
In the case of `CCCCCn1c(=O)[nH]c2cc(C(=O)NCCCN3CCC(C)CC3)ccc2c1=O`, the activity change, negative = inhibition is reported as inactive: 13.9%.
With `CC1CCC2(CC1)NC(=O)N(CC(=O)Nc1cccc(S(=O)(=O)N3CCCC3)c1)C2=O` (stereo not drawn) the activity change, negative = inhibition was inconclusive: -51.2%.
In the case of `COc1ccc(NC(=O)CSCC(=O)N(C)CCOc2ccc(Cl)cc2)cc1`, the activity change, negative = inhibition is reported as inconclusive: -42%.
In the case of `COc1ccc(Br)cc1/C=N/n1c(C)nc2ccccc2c1=O`, the activity change, negative = inhibition is reported as inconclusive: -46.9%.
For `Cc1ccc(C(C(=O)NCC2CCCO2)N(Cc2ccccc2)C(=O)c2ccc(-c3ccccc3)[nH]2)o1` (stereo not drawn), the activity change, negative = inhibition was inconclusive: -52.7%.
For `CCOC(=O)c1c(NC(=O)C2CC(Cl)=CCC2C(=O)O)sc2c1CC(C)(C)OC2` (stereo not drawn), the activity change, negative = inhibition was inconclusive: -41.5%.
With `Cc1ccc2ncc(C(=O)c3ccc(C)c(C)c3)c(S(=O)(=O)c3ccccc3)c2c1` the activity change, negative = inhibition was active: -92.2%.
In the case of `NNc1ccc(Cc2ccc(Cl)cc2Cl)nn1`, the activity change, negative = inhibition is reported as active: -69.8%.
In the case of `Cc1cccc(C)c1-n1nnnc1C1(C)CCC(=O)N1Cc1cccnc1` (stereo not drawn), the activity change, negative = inhibition is reported as inactive: -16.8%.
With `O=C(NCCCN1CCCC1=O)c1cc(=O)c2ccccc2o1` the activity change, negative = inhibition was inconclusive: -43.2%.
For `CC(NC(=O)/C=C/c1ccc(Br)cc1)c1ccc(Cl)cc1` (stereo not drawn), the activity change, negative = inhibition was inconclusive: -40.1%.
For `COc1ccc(Cl)cc1C(=O)CSc1nc(N)cc(N)n1`, the activity change, negative = inhibition was inactive: -19.3%.
For `CCn1ncc(Br)c1C(=O)Nc1ccc(F)cc1F`, the activity change, negative = inhibition was inconclusive: -48.4%.
With `Cc1cccc(NC(=O)COC(=O)c2c(-c3ccccc3)noc2C)c1` the activity change, negative = inhibition was inconclusive: -57.2%.
With `Cc1nc2c(C(=O)NCc3cccs3)cnn2c(C)c1Cc1ccc(F)cc1` the activity change, negative = inhibition was inconclusive: -51.3%.
For `CC(C)c1ccc(CN(C)C(=O)c2ccc(S(=O)(=O)NCc3ccco3)cc2)cc1`, the activity change, negative = inhibition was inconclusive: -56.7%.
In the case of `Oc1ccc(-c2nc3c4c(ncn3n2)-c2ccccc2CC42CCCC2)cc1`, the activity change, negative = inhibition is reported as active: -65.5%.
For `O=C(CNC(=O)c1cccc(S(=O)(=O)N2CCc3ccccc32)c1)Nc1ccccc1Br`, the activity change, negative = inhibition was active: -82.6%.
For `CC1(C(=O)NS(=O)(=O)c2cccc(F)c2)CCN1C(=O)CCC1CCCC1` (stereo not drawn), the activity change, negative = inhibition was inactive: 20.8%.
In the case of `Cc1ccc(/C=C2\C(=O)NC(=S)N(c3ccccc3F)C2=O)s1`, the activity change, negative = inhibition is reported as active: -101%.
In the case of `CCOc1ccc(NC(=O)CN(c2ccc(C)cc2)S(=O)(=O)c2cccs2)cc1`, the activity change, negative = inhibition is reported as inactive: -0.189%.
In the case of `Cc1ccc(-c2nc(CS(=O)(=O)CC(=O)N3CCN(c4ccccc4)CC3)c(C)o2)cc1`, the activity change, negative = inhibition is reported as inconclusive: -41.2%.
With `CC(=O)Nc1ccc(S(=O)(=O)NCCS(=O)(=O)N2CCN(c3ccccc3)CC2)cc1` the activity change, negative = inhibition was inconclusive: -42.9%.
For `Fc1ccc(Oc2cnc3ccccc3n2)cc1`, the activity change, negative = inhibition was inactive: -19.1%.
In the case of `Cc1cc2nc(-c3ccc(=O)[nH]c3)n(C)c2cc1C`, the activity change, negative = inhibition is reported as inconclusive: -44.8%.
For `COc1ccccc1N=Nc1ccc(O)c2ncccc12`, the activity change, negative = inhibition was active: -73.4%.
For `O=C(CNC(=O)c1ccc(Br)o1)NCCc1ccc(F)cc1`, the activity change, negative = inhibition was inconclusive: -47.5%.
In the case of `CN(C)C=NC(=O)/C(C#N)=C1\CCc2ccccc2N1`, the activity change, negative = inhibition is reported as inconclusive: -54.2%.
In the case of `CCCc1c(-c2ccc(F)cc2)ncn1Cc1ccccc1OC`, the activity change, negative = inhibition is reported as inconclusive: -49.5%.
For `CCN(CC(=O)N1CCC(C)CC1)S(=O)(=O)c1ccc(C)cc1`, the activity change, negative = inhibition was inactive: 7.71%.
With `O=c1cc(-c2c(F)c(F)c(F)c(F)c2F)oc2ccccc12` the activity change, negative = inhibition was inconclusive: -45.9%.
In the case of `CCCN1C(=O)C(=O)c2cc(Cl)ccc21`, the activity change, negative = inhibition is reported as active: -85.6%.
In the case of `CC1=C(C(=O)Nc2ccccc2)S(=O)(=O)CCO1`, the activity change, negative = inhibition is reported as inconclusive: -53.5%.
For `Oc1ccc(-c2sc(Nc3ccccc3)n[n+]2-c2ccc(F)cc2)cc1`, the activity change, negative = inhibition was inconclusive: -40.6%.
For `N#C/C(=C\c1ccc([N+](=O)[O-])cc1)C(=O)NCCCn1ccnc1`, the activity change, negative = inhibition was inactive: 0%.
In the case of `Cc1ccc(NC(=O)C2CCN(S(=O)(=O)c3c(C)noc3/C=C/c3cccs3)CC2)cc1F`, the activity change, negative = inhibition is reported as inconclusive: -58.1%.
In the case of `NC(=O)N/N=C/c1coc2ccc3ccccc3c2c1=O`, the activity change, negative = inhibition is reported as inconclusive: -44.2%.
In the case of `Cc1nnc(Cl)c2nn(-c3ccccc3F)c(C)c12`, the activity change, negative = inhibition is reported as inconclusive: -43.6%.
For `CCOC(=O)C1=C(CN2CCN(C(=O)c3ccco3)CC2)NC(=O)NC1c1ccc(C)cc1` (stereo not drawn), the activity change, negative = inhibition was inactive: 7.67%.
With `Cc1noc(C)c1S(=O)(=O)N(CC(=O)N1CCCCCC1)c1ccc(C(C)C)cc1` the activity change, negative = inhibition was inconclusive: -48.7%.
With `CC1CC(C)CN(C(=O)COC(=O)c2ccc[nH]c2=O)C1` (stereo not drawn) the activity change, negative = inhibition was inconclusive: -54%.
In the case of `O=C(c1cn(-c2ccccc2)nc1-c1cccc(Br)c1)N1CCOCC1`, the activity change, negative = inhibition is reported as active: -63.4%.
With `O=C(NCc1ccccn1)C(=O)C1C(=O)Nc2ccccc21` (stereo not drawn) the activity change, negative = inhibition was inactive: 50.1%.
For `COc1ccccc1-c1cc(C(=O)Nc2cc(OC)c(OC)c(OC)c2)no1`, the activity change, negative = inhibition was inactive: -29.3%.
For `CCCCNC(=O)c1cc(-c2ccc(OC)cc2)nc2n[nH]c(-c3cccc([N+](=O)[O-])c3)c12`, the activity change, negative = inhibition was inconclusive: -51.6%.
For `COc1ccc(C(=O)C2CCCN(Cc3cnc(C)s3)C2)c(OC)c1` (stereo not drawn), the activity change, negative = inhibition was inconclusive: -44.2%.

— PubChem BioAssay AID1259415 (National Center for Advancing Translational Sciences (NCATS), 2018)
On the % scale 0 is the no-effect control and ±100 the full control effect.
